# Screen size: about 220,000 compounds; about 770 (0.35%) were called active. The inconclusive results got no clear call from the source; some entries with a clear call stand among them for comparison. Cut-off read from the data, not from the text of the source: active = binding response below about 49% or above about 150%; inconclusive = no clear call, values can overlap the other calls; inactive = in between.
# Sequences of proteins named here, by UniProt entry; tags and fusion partners are left off.
# UniProt P09471, whole entry, looked up: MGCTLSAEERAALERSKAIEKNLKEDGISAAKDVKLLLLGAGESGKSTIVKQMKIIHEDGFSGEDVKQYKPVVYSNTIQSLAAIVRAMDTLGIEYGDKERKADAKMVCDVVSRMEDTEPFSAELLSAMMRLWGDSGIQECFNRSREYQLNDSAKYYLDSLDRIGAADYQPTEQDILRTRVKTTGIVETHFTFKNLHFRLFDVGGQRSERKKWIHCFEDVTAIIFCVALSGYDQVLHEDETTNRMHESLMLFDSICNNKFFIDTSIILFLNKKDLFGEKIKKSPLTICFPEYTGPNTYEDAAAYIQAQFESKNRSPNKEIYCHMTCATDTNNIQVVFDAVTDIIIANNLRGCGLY
# Biological target: Guanine nucleotide-binding protein G(o) subunit alpha (Homo sapiens) (UniProt P09471)
# Experiment: RGS7-Galphao binding modulators, primary screen, biochemical, multiplexed bead flow cytometry (AID 1439);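 note: fluorescent Galphao held in activated GDP-AlF4 state binding bead-coupled RGS7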
# Settings: at 10 µM, actives lie on both sides
row,Structure (SMILES),binding response (% of control)
1,C[C@@H]1CC[C@H](O)/C=C/C(=O)O[C@H](C)CC[C@H](O)/C=C/C(=O)O1,inconclusive: 138%
2,CC(C)NC(=O)CSc1nccc(-c2cccs2)n1,inconclusive: 84.4%
3,CCc1nc(SCC(=O)Nc2ccc(OC)cc2[N+](=O)[O-])n[nH]1,inconclusive: 85.6%
4,Cc1ccc(Oc2nc(-c3ccccn3)nc3ccccc23)cc1,inconclusive: 99.5%
5,CCOC(=O)c1ccc(NC(=O)Nc2ncc(Cl)cc2Cl)cc1,inconclusive: 72.7%
6,OC(CSc1c(Cl)cccc1Cl)CN1CCN(c2ccccc2F)CC1 (stereo not drawn),inactive: 96.8%
7,CC(C)NC(=O)CSCc1c(F)cccc1Cl,inactive: 97.9%
8,Cc1cc(C)c2sc(NC(=O)CN3C(=O)CCC3=O)nc2c1,inconclusive: 135%
9,CN(C)c1ccc(/C=C2/NC(=O)NC2=O)cc1,active: 354% [activator]
10,O=C(NCCc1ccccc1F)/C(=C/c1cccnc1)NC(=O)c1ccccc1,inactive: 97.1%
11,Cc1cccc(N2C(=O)C3C4C=CC(C5CC45)C3C2=O)n1 (stereo not drawn),inconclusive: 120%
12,Cc1c(C(=O)OC/C(O)=C(\C#N)c2nc3ccccc3[nH]2)oc2ccccc12,inconclusive: 105%
13,O=C(CC1C(=O)NCCN1Cc1ccoc1)NCc1cccc(OC(F)(F)F)c1 (stereo not drawn),inconclusive: 96.1%
14,Cc1cc(=O)oc2cc(Oc3ccc(C(N)=O)cc3[N+](=O)[O-])ccc12,inconclusive: 134%
15,COc1ccc(S(=O)(=O)N2CCC(N3CCCCC3)CC2)cc1,inactive: 101%
16,CN(C)c1ccc(NS(=O)(=O)c2ccc(-c3csnn3)cc2)cc1,inconclusive: 103%
17,Cc1cccc(-n2nc(C)c3c2NC2=C(C(=O)CCC2)C3c2ccccn2)c1 (stereo not drawn),inconclusive: 100%
18,c1ccc(-n2c3ccccc3c3ccccc32)cc1,inconclusive: 80.6%
19,O=C(NCc1cccnc1)c1ccc(-c2cc3ccccc3oc2=O)cc1,inconclusive: 125%
20,Cc1c2c(nc3nnnn13)CCCC2,inconclusive: 92.4%
21,Oc1c(Cl)cc(Cl)c2cccnc12,inactive: 99%
22,Cc1nnc(N/N=C/c2ccccn2)[nH]c1=O,inconclusive: 67.6%

row,Structure (SMILES),binding response (% of control)
1,COc1ccc(/C=C/c2nnc(NC(=O)COc3ccccc3)s2)cc1,inconclusive: 95.7%
2,CCOC(=S)SCC(=O)Nc1ncc(C)s1,inconclusive: 9.92%
3,COCC(=O)NC1CCN(S(=O)(=O)c2cccc(C(C)=O)c2)CC1,inactive: 106%
4,Cn1c(=O)c2ncn(CC(=O)O)c2n(C)c1=O,inconclusive: 119%
5,COc1ccc(CCn2ccc(O)c(Cc3ccc(Cl)cc3)c2=O)cc1OC,inconclusive: 91.2%
6,O=C1/C(=C/c2cccnc2)SC(=S)N1CCc1ccccc1,inconclusive: 241%
7,O=C(Cn1cncn1)N/N=C/c1cccc(Cl)c1,inconclusive: 120%
8,CC1=C(C(N)=O)C(c2cccs2)n2ncnc2N1 (stereo not drawn),inconclusive: 61.6%
9,Cc1[nH]nc2c1/C(=N\O)CCC2,inactive: 91.1%
10,CC1CN(Cc2cn(C)nc2-c2ccc(Oc3ccccc3)cc2)CCN1C (stereo not drawn),inconclusive: 103%
11,COC(C[C@@H]1O[C@@H]1[C@@H](O)[C@@H](C)OCc1ccccc1)OC,inconclusive: 108%
12,CC(C)(C)c1ccc(OCC(=O)O)cc1,inconclusive: 89.8%
13,CC(=O)NC1C(OCc2ccccc2)OC(COC(C)=O)C(OC(C)=O)C1OC(C)=O (stereo not drawn),inactive: 99.5%
14,COc1cccc2cc(C(=O)C3=C(O)C(=O)N(CCN(C)C)C3c3ccc(Cl)cc3)oc12 (stereo not drawn),inconclusive: 152%
15,Cc1nn(C(=O)c2ccc([N+](=O)[O-])cc2)c(C)c1Br,inconclusive: 105%
16,CS(=O)(=O)N(CCc1ccccc1)CC(=O)N1CCCC1,inconclusive: 110%
17,CC[C@H]1OC(=O)C[C@@H](O)[C@H](C)[C@@H](O[C@@H]2O[C@H](C)C[C@H](N(C)C)[C@H]2O)[C@@H](CC=O)C[C@@H](C)C(=O)C=C[C@]2(C)O[C@H]2[C@@H]1C,inconclusive: 18.8%
18,O=C1C2CC=CCC2C(=O)N1Cc1nnc(-c2ccccc2Br)o1 (stereo not drawn),inconclusive: 91.2%
19,NC(=O)c1ccc(N=Nc2c(-c3ccccc3)[nH]n(-c3ccccc3)c2=O)cc1,inconclusive: 96.5%
20,COCCN1C(=O)c2[nH]nc(-c3ccccc3O)c2C1c1ccc(OC)cc1 (stereo not drawn),inconclusive: 109%
21,O=C(N/N=C/C(Cl)=C/c1ccc([N+](=O)[O-])cc1)C(=O)Nc1cccc(C(=O)O)c1,inconclusive: 111%
22,CC1CC(C)(C)NC(=S)N1CCCC(=O)Nc1ccc(F)c(F)c1 (stereo not drawn),inconclusive: 102%

# Among those listed so far, these have a COOH group.
row,Structure (SMILES),binding response (% of control)
4,Cn1c(=O)c2ncn(CC(=O)O)c2n(C)c1=O,inconclusive: 119%
12,CC(C)(C)c1ccc(OCC(=O)O)cc1,inconclusive: 89.8%
21,O=C(N/N=C/C(Cl)=C/c1ccc([N+](=O)[O-])cc1)C(=O)Nc1cccc(C(=O)O)c1,inconclusive: 111%

# Further structures:

row,Structure (SMILES),binding response (% of control)
1,COc1cccc(/C=N/NC(=O)CNC(=O)c2ccc(S(=O)(=O)N3CCCC3)cc2)c1OC,inactive: 97%
2,CN(C)S(=O)(=O)c1ccc(C(=O)OCC(=O)Nc2ccc(OC(F)F)cc2)cc1,inconclusive: 136%
3,CCOC(=O)c1ccc(NC(=O)c2nc[nH]c2C(=O)NCc2ccccc2)cc1,inconclusive: 114%
4,CCOC(=O)N1CCc2c(sc3nc4n(c(=O)c23)N=C(c2ccc(OC)cc2)CS4)C1,inconclusive: 176%
5,Cc1ccc2nc(SCc3nc4cc(Cl)ccc4c(=O)[nH]3)[nH]c2c1,inconclusive: 89.5%
6,Cc1nc(N2CCOCC2)nc(Oc2ccccc2F)c1[N+](=O)[O-],inconclusive: 0.18%
7,COc1ccc2c(CC(=O)OCC(=O)Nc3sc4c(c3C#N)CCC(C)C4)coc2c1 (stereo not drawn),inactive: 98.2%
8,O=C(CCCCCN1C(=O)c2cccc3cccc(c23)C1=O)NC1CCS(=O)(=O)C1 (stereo not drawn),inconclusive: 98.8%
9,Cn1ncc(C#N)c1NC(=O)C1CC(c2ccccc2Cl)=NO1 (stereo not drawn),inconclusive: 102%
10,O=C(O)c1cccc(NC(=S)NC(NC(=O)c2ccco2)C(Cl)(Cl)Cl)c1 (stereo not drawn),inconclusive: -178%
11,CC1CC(C)(C)NC(=S)N1CCCC(=O)NCc1ccccc1 (stereo not drawn),inconclusive: 102%
12,Fc1ccc2[nH]c3c(N4CCc5ccccc5C4)ncnc3c2c1,inconclusive: 74.9%
13,Cc1sc2nc(COC(=O)c3cccc(S(=O)(=O)N(C)c4ccccc4)c3)[nH]c(=O)c2c1C,inactive: 89.7%
14,CCN1CCN(Cc2ccc(NC(=O)c3ccc(C)c(NC(=O)c4ccnnc4)c3)cc2C(F)(F)F)CC1,inconclusive: 105%
15,S=c1[nH]nc(-c2cc(-c3ccccc3)n[nH]2)n1/N=C/c1ccc(Cl)c(Cl)c1,inconclusive: 138%
16,COc1ccc(N2CCN(C(=O)CCNS(=O)(=O)c3ccc4c(c3)CCC(=O)N4)CC2)cc1,inactive: 103%
17,CC(=O)Oc1cccc(/C=C2\Sc3ccccc3C2=O)c1,inconclusive: 4.49%
18,O=C(Oc1ccc(-c2csnn2)cc1)c1cccs1,inconclusive: 61.2%
19,Cc1cccc(NC(=O)Nc2cnccn2)c1,inconclusive: 96.7%
20,CCOC(=S)SCC(=O)Nc1nc(C)c(C)s1,inconclusive: 84.3%
21,COC(=O)[C@@]1(C)CC[C@]2(C)CC[C@@]3(C)C(=CC(=O)C4[C@@]5(C)CC[C@H](O)C(C)(C)[C@@H]5CC[C@]43C)[C@H]2C1 (stereo partly drawn),inconclusive: 98%
22,CCOC(=O)c1cc2c(N)c(C(=O)c3ccc(Br)cc3)sc2[nH]c1=O,inconclusive: 101%

row,Structure (SMILES),binding response (% of control)
1,Cc1[nH]c(-c2ccccn2)nc(=S)c1Cl,inconclusive: 113%
2,O=c1[nH]nc(N2CCOCC2)c(=O)[nH]1,inconclusive: 166%
3,CCN(CC)CC(=O)Nc1ccc([N+](=O)[O-])cc1,inconclusive: 103%
4,Brc1ccc(-c2csc(N/N=C/c3cccnc3)n2)cc1,inconclusive: 91%
5,CS(=O)(=O)N1CCN(c2ccc([N+](=O)[O-])cc2C(F)(F)F)CC1,inconclusive: 97.6%
6,CC12CCC(C(=O)Nc3ccc(Br)cn3)(OC1=O)C2(C)C (stereo not drawn),inconclusive: 104%
7,CC(C)c1ccc(NNC(=O)C2CCC2)cc1,inconclusive: 62.6%
8,NS(=O)(=O)c1ccc(NC(=O)COC(=O)Cc2ccc(Cl)cc2)cc1,inconclusive: 108%
9,COc1ccc2[nH]c(=O)c(CN(Cc3nnnn3Cc3ccc(F)cc3)CC3CCCO3)cc2c1 (stereo not drawn),inactive: 144%
10,O=C(NCc1ccco1)c1ccc(-c2csnn2)cc1,inconclusive: 125%
11,N=C1/C(=C/c2cccn2Cc2ccc(Cl)cc2)C(=O)N=C2SC=CN12,inactive: 98.7%
12,Cc1ccc(C(=O)N2CCN(Cc3ccc4c(c3)OCO4)CC2)cc1S(=O)(=O)N1CCOCC1,inconclusive: 128%
13,COCCNC(=O)c1ccc2c3n(nc2c1)-c1ccc(Cl)cc1CO3,inconclusive: 91.9%
14,O=C(CCCCn1c(=O)[nH]c2ccccc2c1=O)NCCc1c[nH]c2ccccc12,inactive: 101%
15,Cc1cc(C)c2oc(C(=O)NCCc3ccc(S(N)(=O)=O)cc3)cc(=O)c2c1,inconclusive: 85.8%
16,N/C(=N\OCc1ccc([N+](=O)[O-])cc1)c1ccccn1,inconclusive: 118%
17,CC(=C/c1ccccc1)/C=N/NC(=O)c1ccccn1,inconclusive: 95.9%
18,COc1ccc(/C(=N/OC(C)=O)c2nccc3cc(OC)c(OC)cc23)cc1OC,inconclusive: 107%
19,Cc1oc2ccc(OC(=O)c3cccs3)cc2c1C(=O)OC(C)C,inactive: 99.4%
20,O=C(CSC(=S)N1CCCCC1)Nc1ncc2c(n1)CC(c1ccco1)CC2=O (stereo not drawn),inconclusive: 26.8%
21,CCC(C)/C(C)=N/Nc1ccc(S(N)(=O)=O)cc1[N+](=O)[O-] (stereo not drawn),inconclusive: 111%
22,CCOc1ccc(C(=O)Nc2cc(-c3nc4ccccc4[nH]3)ccc2C)cc1[N+](=O)[O-],inactive: 120%
